Reference: article doi:10.1101/2021.08.31.458340
Results are given in words; binding and its absence hold for the method and conditions named. Binding seen in cells or lysates may run through a third protein. Some binding calls cover weakened binding; strength is not graded here.

Chains of the proteins cited; added tags and fusions are not shown.
UniProt Q8N8S7, whole entry: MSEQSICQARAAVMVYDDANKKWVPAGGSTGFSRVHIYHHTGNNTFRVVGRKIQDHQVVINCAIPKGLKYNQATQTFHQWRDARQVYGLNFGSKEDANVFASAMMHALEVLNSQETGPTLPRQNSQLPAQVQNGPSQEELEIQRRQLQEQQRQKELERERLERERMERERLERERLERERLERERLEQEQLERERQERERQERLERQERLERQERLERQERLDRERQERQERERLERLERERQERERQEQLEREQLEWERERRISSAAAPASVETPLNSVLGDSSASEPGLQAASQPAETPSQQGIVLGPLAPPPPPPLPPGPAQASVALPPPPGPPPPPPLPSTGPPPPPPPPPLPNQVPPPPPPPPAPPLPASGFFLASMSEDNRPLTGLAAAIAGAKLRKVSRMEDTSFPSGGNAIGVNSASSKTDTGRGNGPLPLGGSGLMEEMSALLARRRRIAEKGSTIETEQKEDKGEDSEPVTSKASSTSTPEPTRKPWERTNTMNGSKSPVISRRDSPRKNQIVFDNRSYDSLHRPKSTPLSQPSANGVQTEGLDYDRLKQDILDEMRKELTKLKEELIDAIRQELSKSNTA

Target: nesprin-2 (encoded by SYNE2) (human (endogenous in Met4)) (UniProt Q8WXH0)
Test: co-IP

binding: binds
Substance: Mena (human Enabled homologue, encoded by ENAH) (from UniProt Q8N8S7 1-591)
